Measurements reported in PubChem BioAssay AID1224828 (NIAID, 2016)
The deposit covers about 17,000 reagents; shown is a part drawn at random. 762 of all reagents (4.5%) count as active. 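Active calls include both raised and lowered p65 entry, mostly lowered; wells with fewer than 50 cells lack a z-score.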 The raw values are shown without normalisation. The numbers tell different reagents against one gene apart.

- Assay: 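Knock-downs that increase or decrease LPS-induced p65 nuclear translocation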 (primary screen)
- System: mouse RAW264.7 G9 macrophage reporter cells (GFP-p65, Tnf promoter-mCherry)
- Reagents: siRNA pool against mouse genes, 100 nM
- Timing: 2 days siRNA transfection, then 40 min LPS before fixation
- Treatment: LPS (Salmonella minnesota R595) at 10 ng/ml
- Measurement: 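Microscopy ratio of nuclear to perinuclear-ring GFP-p65 signal, scaled to the plate median; gene score is the average of two replicate robust z-scores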
- Scale: p65 translocation robust z-score: higher = more nuclear NF-kappaB p65 after LPS than the plate median; nuclear/cytoplasmic p65 ratio: higher = more nuclear NF-kappaB p65
- Rule for the call: 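Active if robust z is above 3.3 (negative regulators) or below -1.56, the Tlr4 control median (positive regulators); activity score 50 or more; control wells not called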
- Calls: active = hit (p65 shift raised or lowered); inactive = no clear change

| gene knocked down | pool no. | p65 translocation robust z-score | nuclear/cytoplasmic p65 ratio, rep 1 | nuclear/cytoplasmic p65 ratio, rep 2 | low cell count flag | outcome |
| --- | --- | --- | --- | --- | --- | --- |
| Gdf3 (growth differentiation factor 3) | 1 | -2.44 | 1.29 | 1.15 | enough cells to score | active |
| Fstl3 (follistatin-like 3) | 1 | 0.34 | 1.46 | 1.43 | enough cells to score | inactive |
| Zfp747 (zinc finger protein 747) | 1 | -1.68 | 1.22 | 1.29 | enough cells to score | active |
| Il1rn (interleukin 1 receptor antagonist) | 1 | -0.68 | 1.33 | 1.34 | enough cells to score | inactive |
| Hdac10 (histone deacetylase 10) | 1 | -0.17 | 1.46 | 1.31 | enough cells to score | inactive |
| Thrb (thyroid hormone receptor beta) | 1 | -0.22 | 1.4 | 1.57 | enough cells to score | inactive |
| C1s2 (complement component 1, s subcomponent 2) | 1 | 1.6 | 1.88 | 1.83 | enough cells to score | inactive |
| Mrps30 (mitochondrial ribosomal protein S30) | 1 | -0.2 | 1.48 | 1.26 | enough cells to score | inactive |
| Grip1 (glutamate receptor interacting protein 1) | 1 | 2 | 2.09 | 1.7 | enough cells to score | inactive |
| Pld5 (phospholipase D family member 5) | 1 | – | 1.47 | 1.81 | fewer than 50 cells per well; well left out of scoring | inactive |
| Or56a5 (olfactory receptor family 56 subfamily A member 5) | 1 | -0.23 | 1.32 | 1.24 | enough cells to score | inactive |
| Bcl2l13 (BCL2 like 13) | 1 | -0.67 | 1.45 | 1.58 | enough cells to score | inactive |
| Trim52 (tripartite motif-containing 52) | 1 | -0.83 | 1.59 | 1.11 | enough cells to score | inactive |
| Ctss (cathepsin S) | 1 | 0.55 | 1.61 | 1.39 | enough cells to score | inactive |
| Sun5 (Sad1 and UNC84 domain containing 5) | 1 | – | 0 | 1.17 | fewer than 50 cells per well; well left out of scoring | inactive |
| Nalf1 (NALCN channel auxiliary factor 1) | 1 | 1.82 | 1.8 | 1.81 | enough cells to score | inactive |
| Or2ad1 (olfactory receptor family 2 subfamily AD member 1) | 1 | – | 1.32 | 1.12 | fewer than 50 cells per well; well left out of scoring | inactive |
| Ptprm (protein tyrosine phosphatase receptor type M) | 1 | 0.58 | 1.58 | 1.61 | enough cells to score | inactive |
| Ffar2 (free fatty acid receptor 2) | 1 | – | 1.47 | 1.45 | fewer than 50 cells per well; well left out of scoring | inactive |
| Elf1 (E74 like ETS transcription factor 1) | 1 | -0.23 | 1.46 | 1.31 | enough cells to score | inactive |
| Cyp2c50 (cytochrome P450, family 2, subfamily c, polypeptide 50) | 1 | 1.17 | 1.74 | 1.44 | enough cells to score | inactive |
| Klhl23 (kelch-like 23) | 1 | 0.68 | 1.52 | 1.54 | enough cells to score | inactive |
| Eef1akmt2 (EEF1A lysine methyltransferase 2) | 1 | – | 1.15 | 2.01 | fewer than 50 cells per well; well left out of scoring | inactive |
| Celf6 (CUGBP, Elav-like family member 6) | 1 | – | 1.13 | 1.16 | fewer than 50 cells per well; well left out of scoring | inactive |
| Or2ag16 (olfactory receptor family 2 subfamily AG member 16) | 1 | 0.35 | 1.55 | 1.31 | enough cells to score | inactive |
| H4c14 (H4 clustered histone 14) | 1 | -2.12 | 1.41 | 1.26 | enough cells to score | active |
| Amdhd2 (amidohydrolase domain containing 2) | 1 | -0.19 | 1.59 | 1.58 | enough cells to score | inactive |
| Rhbdl2 (rhomboid like 2) | 1 | 0.89 | 1.53 | 1.69 | enough cells to score | inactive |
| Gemin4 (gem nuclear organelle associated protein 4) | 1 | -1.14 | 1.39 | 1.34 | enough cells to score | inactive |
| Or2l13 (olfactory receptor family 2 subfamily L member 13) | 1 | 1.74 | 1.81 | 1.79 | enough cells to score | inactive |
| Or12k8 (olfactory receptor family 12 subfamily K member 8) | 1 | – | 1.36 | 1.12 | fewer than 50 cells per well; well left out of scoring | inactive |
| Agbl1 (ATP/GTP binding protein-like 1) | 1 | 0.7 | 1.63 | 1.69 | enough cells to score | inactive |
| Xpr1 (xenotropic and polytropic retrovirus receptor 1) | 1 | 3.45 | 2.65 | 1.42 | enough cells to score | active |
| Tmem63a (transmembrane protein 63a) | 1 | 0.51 | 1.36 | 1.93 | enough cells to score | inactive |
| Fmr1 (fragile X messenger ribonucleoprotein 1) | 1 | 1.14 | 1.58 | 1.53 | enough cells to score | inactive |
| Rsrc1 (arginine/serine-rich coiled-coil 1) | 1 | – | 1.22 | 1.4 | fewer than 50 cells per well; well left out of scoring | inactive |
| Gtf2i (general transcription factor II I) | 1 | 1.14 | 1.9 | 1.54 | enough cells to score | inactive |
| Acta2 (actin alpha 2, smooth muscle, aorta) | 1 | 0.06 | 1.49 | 1.51 | enough cells to score | inactive |
| Acta2 (actin alpha 2, smooth muscle, aorta) | 2 | -0.29 | 1.58 | 1.57 | enough cells to score | inactive |
| Cops4 (COP9 signalosome subunit 4) | 1 | 1.79 | 1.89 | 2.02 | enough cells to score | inactive |
| Pak3 (p21 (RAC1) activated kinase 3) | 1 | -1.25 | 1.53 | 1.22 | enough cells to score | inactive |
| Loxl1 (lysyl oxidase-like 1) | 1 | 1.62 | 1.86 | 1.88 | enough cells to score | inactive |
| Ncbp2as2 (Ncbp2 antisense 2 (head to head)) | 1 | -1.02 | 1.35 | 1.36 | enough cells to score | inactive |
| Mrpl51 (mitochondrial ribosomal protein L51) | 1 | 1.08 | 1.97 | 1.74 | enough cells to score | inactive |
| Jak2 (Janus kinase 2) | 1 | 0.7 | 1.88 | 1.4 | enough cells to score | inactive |
| Alg11 (ALG11 alpha-1,2-mannosyltransferase) | 1 | -0.63 | 1.54 | 1.56 | enough cells to score | inactive |
| Med29 (mediator complex subunit 29) | 1 | – | 1.71 | 1.02 | fewer than 50 cells per well; well left out of scoring | inactive |
| Il12rb2 (interleukin 12 receptor, beta 2) | 1 | 1.32 | 1.67 | 1.49 | enough cells to score | inactive |
| Fsip1 (fibrous sheath-interacting protein 1) | 1 | 1.77 | 1.83 | 1.73 | enough cells to score | inactive |
| Slx4 (SLX4 structure-specific endonuclease subunit) | 1 | -0.71 | 1.44 | 1.31 | enough cells to score | inactive |
| Vmn1r72 (vomeronasal 1 receptor 72) | 1 | 0.62 | 1.46 | 1.31 | enough cells to score | inactive |
| Or5b122 (olfactory receptor family 5 subfamily B member 122) | 1 | 0.91 | 1.82 | 1.48 | enough cells to score | inactive |
| Rag2 (recombination activating gene 2) | 1 | 1.09 | 1.69 | 1.65 | enough cells to score | inactive |
| Prop1 (paired like homeodomain factor 1) | 1 | -0.4 | 1.48 | 1.32 | enough cells to score | inactive |
| Wars1 (tryptophanyl-tRNA synthetase1) | 1 | 0.05 | 1.56 | 1.58 | enough cells to score | inactive |
| Serpinb3c (serine (or cysteine) peptidase inhibitor, clade B, member 3C) | 1 | -0.65 | 1.35 | 1.15 | enough cells to score | inactive |
| Dusp1 (dual specificity phosphatase 1) | 1 | -0.6 | 1.52 | 1.31 | enough cells to score | inactive |
| Cdh20 (cadherin 20) | 1 | -0.33 | 1.47 | 1.29 | enough cells to score | inactive |
| Rps10 (ribosomal protein S10) | 1 | – | 1.21 | 1.08 | fewer than 50 cells per well; well left out of scoring | inactive |
| Gpr3 (G-protein coupled receptor 3) | 1 | – | 1.37 | 1.48 | fewer than 50 cells per well; well left out of scoring | inactive |
| Hsd3b4 | 1 | 1.06 | 1.8 | 1.49 | enough cells to score | inactive |
| Gad2 (glutamic acid decarboxylase 2) | 1 | 0.9 | 1.55 | 1.48 | enough cells to score | inactive |
| Or6c88 (olfactory receptor family 6 subfamily C member 88) | 1 | – | 1.44 | 1.18 | fewer than 50 cells per well; well left out of scoring | inactive |
| Abcc10 (ATP-binding cassette, sub-family C member 10) | 1 | 0.09 | 1.56 | 1.7 | enough cells to score | inactive |
| Crebbp (CREB binding protein) | 1 | -1.85 | 1.4 | 1.13 | enough cells to score | active |
| Vmn1r76 (vomeronasal 1 receptor 76) | 1 | -0.06 | 1.41 | 1.2 | enough cells to score | inactive |
| Vps41 (VPS41 HOPS complex subunit) | 1 | 0.32 | 1.4 | 1.29 | enough cells to score | inactive |
| Npepps (aminopeptidase puromycin sensitive) | 1 | 0.77 | 1.71 | 1.41 | enough cells to score | inactive |
| Spg7 (SPG7, paraplegin matrix AAA peptidase subunit) | 1 | 1.28 | 1.7 | 2.09 | enough cells to score | inactive |
| Spg7 (SPG7, paraplegin matrix AAA peptidase subunit) | 2 | 0.19 | 1.52 | 1.64 | enough cells to score | inactive |
| Cops6 (COP9 signalosome subunit 6) | 1 | 0.17 | 1.57 | 1.84 | enough cells to score | inactive |
| Eno4 (enolase 4) | 1 | 2.77 | 1.52 | 2.04 | enough cells to score | inactive |
| Fbf1 (Fas binding factor 1) | 1 | -0.34 | 1.48 | 1.41 | enough cells to score | inactive |
| Kcnh2 | 1 | 1.9 | 1.71 | 1.65 | enough cells to score | inactive |
| Eri2 (exoribonuclease 2) | 1 | 1.84 | 1.55 | 1.76 | enough cells to score | inactive |

Copied from the list.
Under “outcome”, Vps41 (VPS41 HOPS complex subunit) reads inactive
Value of Gad2 (glutamic acid decarboxylase 2) under “low cell count flag”: enough cells to score
Amdhd2 (amidohydrolase domain containing 2), p65 translocation robust z-score → -0.19
Trim52 (tripartite motif-containing 52), nuclear/cytoplasmic p65 ratio, rep 2 = 1.11
Rps10 (ribosomal protein S10), nuclear/cytoplasmic p65 ratio, rep 2: 1.08
Entry for Eri2 (exoribonuclease 2) under “low cell count flag”: enough cells to score
